Results from publication PMC7404038, “Chaperone-Like Activity of HSPB5: The Effects of Quaternary Structure Dynamics and Crowding” (International Journal of Molecular Sciences, 2020).
Results are given in words; binding and its absence hold for the method and conditions named. Some entries that bind do so weakly or less than the wild type. For part of these data: Sequences can lack the tags named with a protein. Blank lines part the entries; values can stand above or below the binder they belong to.

Experiments:
[1] = target: T1, Ca2+-depleted α-lactalbumin, P00711; test: asymmetric field flow fractionation; αLa after 3 min incubation at 37 °C in the presence of 20 mM DTT, followed during 30 min; both purified; conditions: remark: other sources report otherwise
T1 chain: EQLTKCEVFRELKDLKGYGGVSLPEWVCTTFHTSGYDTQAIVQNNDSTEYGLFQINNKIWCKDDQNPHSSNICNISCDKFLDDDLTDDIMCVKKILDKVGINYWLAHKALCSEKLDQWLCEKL

[2] = target: T1, Ca2+-depleted α-lactalbumin, P00711; test: AUC; sedimentation velocity, αLa 0.3 mg/mL with HSPB5 0-0.03 mg/mL, 0.1 M Na-phosphate buffer, pH 6.8, 10 mM NaCl, 20 mM DTT, 37 °C, 60,000 rpm, absorbance at 280 nm; both purified; conditions: remark: other sources report otherwise

- binding [1]: binds
- binding [2]: binds
B1: Ca2+-depleted α-lactalbumin, P00711 20-142 (protein)
chain: T1 chain

- binding [2]: binds
B2: Human full-length untagged HSPB5 (αB-crystallin) (natural protein, UniProt P02511 1-175, looked up)
chain: MDIAIHHPWIRRPFFPFHSPSRLFDQFFGEHLLESDLFPTSTSLSPFYLRPPSFLRAPSWFDTGLSEMRLEKDRFSVNLDVKHFSPEELKVKVLGDVIEVHGKHEERQDEHGFISREFHRKYRIPADVDPLTITSSLSSDGVLTVNGPRKQVSGPERTIPITREEKPAVTAAPKK
notes: αB-crystallin (HSPB5), human, full length, untagged; subunit mass 20.2 kDa as printed; Polydisperse oligomer whose size depends on concentration, temperature and crowding; the preparation was a gift of N. Sluchanko; also called the chaperone; source: expressed and purified as described earlier [104]
